Measurements reported in US20200121665A1, “PPAR GAMMA MODULATORS FOR TREATING CYSTIC DISEASES” (Indiana University Research and Technology Corporation, priority 2013, published 2020).
Where two headings read alike, the source gives them in different places. For at least one compound, name, drawing or mass did not settle the structure.

Tests used:
[1] = test system: W-WPK rat; test: 13 day pioglitazone treatment in W-WPK rat model of PKD; settings: 0.2 mg/kg BW
[2] = test system: PCK rat; settings: cited from earlier work
[3] = test system: PCK rat; settings: for effect on kidney weight as a percent of body weight: 24 weeks
Excerpt: PCK rat animal model of slowly-progressing PKD. The PCK rat is an animal model that has a orthologous genetic mutation to the human autosomal recessive polycystic kidney disease (ARPKD), but has the phenotypic characteristics of human ADPKD, including renal and liver fibrocystic disease. The Pck gene of the rat is an orthologue to the PKHD-1 gene responsible for ARPKD. The animal model develops both kidney and liver fibrocystic diseases, and is slow progressing. […] Only females are used in the study.
Briefly, after weaning, test animals are fed a diet containing increasing doses of a PPARγ modulator, normalized to body weight, and compared to untreated control fed normal diet. A hematocrit is measured to assess the presence or absence of fluid retention. […] The untreated control group fed the same diet without any PPARγ modulators.
Animals are sacrificed and total body weight is recorded. Total kidney weight is recorded, total liver weight is recorded, and heart weight is recorded. Blood is collected via cardiac puncture, and serum and plasma samples are collected. The liver and kidney were embedded in paraffin and transversely sectioned and stained with hematoxylin, and eosin. The percent kidney weight to body weight was calculated. After histology on the kidney, renal cyst volume was determined through point count stereology methods. From the total liver weight, the percent liver to body weight was calculated. Following histology and picrosiruis red staining, the percent fibrosis can be determined through point count stereology methods. Heart weight is determined and the percent heart weight to body weight is calculated to assess heart disease, such as due to fluid retention, a reported side effect associated with PPARγ agonist treatment. Hearts are preserved in 4% paraformaldehyde. Liver enzymes, glucose levels, and ion levels are evaluated using the blood and urine samples.

Row | Compound | decrease of cystic burden measured as total kidney weight ([1]; day 5 to day 18, FIG. 3B) | decrease of cystic burden measured as kidney weight as a percentage of body weight ([1]; day 5 to day 18, FIG. 3C) | renal and liver cyst burden ([2]; 4 or 20 mg/kg BW diet for 7 weeks, 20 mg/kg BW for 14 weeks) | apical expression of CFTR in bile ducts by electron microscopy ([2]; pioglitazone supplemented diet) | renal cystic burden in transverse kidney sections ([3]; 28 week old PCK rats fed 24 weeks, FIGS. 2A-2C (4.0 and 0.04 mg/kg BW)) | effect on kidney weight as a percent of body weight ([3]; high dose (4 mg/kg BW)) | effect on kidney weight as a percent of body weight ([3]; low dose (0.04 mg/kg BW)) | efficacy in reducing all parameters of cystic growth, low dose relative to high dose ([3]; low dose (100 fold lower than the high dose)) | efficacy in cyst growth inhibition ([3]; lowest dose 0.04 mg/kg BW, 24 week feeding study)
1 | CCc1ccc(CCOc2ccc(CC3SC(=O)NC3=O)cc2)nc1 (stereo not drawn) [pioglitazone] | effective | effective | improvement | decrease |  |  |  |  | 
2 | CN(CCOc1ccc(CC2SC(=O)NC2=O)cc1)c1ccccn1 (stereo not drawn) [Rosiglitazone, rosiglitazone] |  |  |  |  | significantly decreased | significantly decreased | significantly decreased | as efficacious | effective
